This is one part of the list.

Amino acid sequences for entries named in this document (tags omitted).
UniProt Q0JBA9, entry or part of it: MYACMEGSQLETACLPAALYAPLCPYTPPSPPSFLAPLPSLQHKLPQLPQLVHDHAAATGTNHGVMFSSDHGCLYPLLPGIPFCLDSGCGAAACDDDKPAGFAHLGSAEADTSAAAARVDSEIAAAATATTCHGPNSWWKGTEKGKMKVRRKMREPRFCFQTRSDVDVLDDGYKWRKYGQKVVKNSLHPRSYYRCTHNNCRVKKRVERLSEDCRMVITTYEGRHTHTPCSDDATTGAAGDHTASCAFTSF

The target in this test is OsWRKY34 (Oryza sativa, UniProt Q0JBA9 1-250). In words: protein-binding microarray (RPBM); PBS, 2% BSA, 51.3 ng/ul salmon testes DNA, 50 uM zinc acetate, 200 nM TF, 25 C, 1 h; high values mean tight binding. The note with it: protein: recombinant; tags: N-terminal polyhistidine and DsRed monomer fusion (pET32a); label: CyDye5-dUTP incorporated in the synthesized complementary strand; 3' TTTTT single-stranded linker to array surface; dsDNA, one strand shown. The procedure, abridged: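 Transcription factors, each fused N-terminally to a polyhistidine tag and DsRed, were expressed in E. coli BL21-CodonPlus and purified on Ni–NTA. A custom Agilent array was made double-stranded by primer extension with Cy5-dUTP and blocked with 2% BSA. It was incubated with 200 nM protein in PBS, 2% BSA, salmon testes DNA and 50 µM zinc acetate at 25 °C for 1 h, then washed. The binding signal is per-feature fluorescence intensity (arbitrary units) read on an Axon 4000B scanner.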
Regarding “GAAGATGCTGTGCACATTGATACTGGCTGTATCCATTTCTCGGAGTCACCTAGTGCAG”, the binding signal was 8040 fluorescence intensity (a.u.).
“CGTGTTCTTCTCTGCCGCCATGCTAATACGAACTGATACCCGGAGTCACCTAGTGCAG”: the binding signal is 8610 fluorescence intensity (a.u.).
As to “CGAAATTTCAGCATTCCTCGGGGTCCTGCGAGCAAAAAATCGGAGTCACCTAGTGCAG”, the binding signal was 8230 fluorescence intensity (a.u.).
For the sequence “CTAGCAGCCCTGTTACTCACACCCACCCAGTCGATTCATGCGGAGTCACCTAGTGCAG”, the binding signal was 8990 fluorescence intensity (a.u.).
Turning to “CAGGAGTTGTGTGTTGTGTTTTTCTAACTTAGGGCGTATACGGAGTCACCTAGTGCAG”, the binding signal is 9980 fluorescence intensity (a.u.).
Consider “GCTCCGCCTCTGCGAGCTCCGCGTCGTCGTCGCCTGCACCCGGAGTCACCTAGTGCAG”, for which the binding signal is 8890 fluorescence intensity (a.u.).
“TCCTCCTATAATTCACGCGCCACCGCTTGCTTGCATTGCACGGAGTCACCTAGTGCAG”: the binding signal was 8350 fluorescence intensity (a.u.).
Regarding “ATTTCGCAGCTTGAACAGGGGAGGGGCGCGGGCGCCGAGCCGGAGTCACCTAGTGCAG”, the binding signal was 15000 fluorescence intensity (a.u.).
On to “GTTCATACCATATTATCAAATTTGTTTAATTTTCAGAACTCGGAGTCACCTAGTGCAG”, for which the binding signal is 9040 fluorescence intensity (a.u.).
In the case of “GGAGATGGGGAGAGGAGGCGGGCGCGGTGGCAGGCGGCGCCGGAGTCACCTAGTGCAG”, the binding signal is 9520 fluorescence intensity (a.u.).
Then “TTCGGCCATCTTTTTTCGAACACACAAAAATTTATCATGTCGGAGTCACCTAGTGCAG”, with 8850 fluorescence intensity (a.u.); and “GTGGCTTGAAAGGTCTGTGTGTTCTTGTTTGGGATTGAGGCGGAGTCACCTAGTGCAG”, with 8440 fluorescence intensity (a.u.); and “TGTGGGCCCAATAACTTTTTTATTTTTTATTTTATTGACTCGGAGTCACCTAGTGCAG”, with 9610 fluorescence intensity (a.u.).
In the case of “GGTAAAAAATATATGGTTTTTGGGTTTAGGGGTACTTCGTCGGAGTCACCTAGTGCAG” it was 8710 fluorescence intensity (a.u.); in that of “TCACCTGTTTATGTTTGATCTGGACTATTATTCTCATGTTCGGAGTCACCTAGTGCAG”, 10600 fluorescence intensity (a.u.).
In the case of “CTCTTTTGTTTTTAGGACTTATATGTGCTGCTTGTCAATGCGGAGTCACCTAGTGCAG” it was 8410 fluorescence intensity (a.u.); in that of “GGGTGGGAGTGGGATACAGTCAAGACTCCTTCAATAATCTCGGAGTCACCTAGTGCAG”, 8430 fluorescence intensity (a.u.).
Take “GACACTGTTGACTTTTTAGCACATATTTGACCGTTCGTCTCGGAGTCACCTAGTGCAG”: the binding signal is 21300 fluorescence intensity (a.u.).
With “TTCTCTCGTCTCTTTTACCTCAATCTCACGTATATCTTGGCGGAGTCACCTAGTGCAG”, the binding signal is 10100 fluorescence intensity (a.u.).
Then “GTCTCATCGTGATCGACGTTCACCTTTGATTCTATTTTAACGGAGTCACCTAGTGCAG”, with 8910 fluorescence intensity (a.u.); and “AAGCTCGTCCGCCACCGCGTCATCTCACAGGTTTACTATACGGAGTCACCTAGTGCAG”, with 12700 fluorescence intensity (a.u.).
As to “CATACTTTATTAATAACCGTGTCTAACCTTAAAACTTGTTCGGAGTCACCTAGTGCAG”, the binding signal is 8610 fluorescence intensity (a.u.).
Then “ACACGCCCACGCCCACGCCCACGCCCACGGCCCACGGCGCCGGAGTCACCTAGTGCAG”, with 10600 fluorescence intensity (a.u.).
As for “TCCCTAAAATTTTTCACCCTTTCACATTAAACGTTTAACACGGAGTCACCTAGTGCAG”, the binding signal was 11400 fluorescence intensity (a.u.).
Turning to “CCACTTTTTTAGCATCAAATTCGCATATCTTGACTTTTTTCGGAGTCACCTAGTGCAG”, the binding signal was 8700 fluorescence intensity (a.u.).
Turning to “CCGATCTCCACCACCACCACCACCACGCGGGCGCGCGCACCGGAGTCACCTAGTGCAG”, the binding signal is 8080 fluorescence intensity (a.u.).
In the case of “CATCGAAGTTTCTTTTTCAGCTTTTAATTTTCGATCGCTACGGAGTCACCTAGTGCAG” it was 8160 fluorescence intensity (a.u.); in that of “GCCACACTCCACCCAACCACCGGTCGCCGCCGGCGAGATGCGGAGTCACCTAGTGCAG”, 8090 fluorescence intensity (a.u.).
Consider “TACTAATTCGGCGTACATTCATTGACACACTTAAATTTTACGGAGTCACCTAGTGCAG”, for which the binding signal was 8910 fluorescence intensity (a.u.).
For “GCTCTCGTTTCCTCCGATCGACTAGCCGGCGTTGGAAGCCCGGAGTCACCTAGTGCAG”, the binding signal was 8260 fluorescence intensity (a.u.).
For the sequence “AAGTGTTTCCCTGGCCTCACCTTTTCTTTTAGCTACAGTACGGAGTCACCTAGTGCAG”, the binding signal was 10300 fluorescence intensity (a.u.).
For “GGCTTCGTTGTGATATGTGGAAGACGAGGGGCTTTTTCACCGGAGTCACCTAGTGCAG”, the binding signal is 10400 fluorescence intensity (a.u.).
On to “GAACAGTGCTGGCACTAGGCCACTAGCTAAGTAGCTAGCTCGGAGTCACCTAGTGCAG”, for which the binding signal is 13000 fluorescence intensity (a.u.).
In the case of “TCGCTGACCTGCCCGTGTTCGCCCCTCTCGCCGGCCGCCGCGGAGTCACCTAGTGCAG” it was 8240 fluorescence intensity (a.u.); in that of “CCATCCATCCAACCATCGATCGATCACTTCCAACTTATTTCGGAGTCACCTAGTGCAG”, 11800 fluorescence intensity (a.u.).
Then “CCGTCAGGTGACGTTTCTCCAGAGGAGCTGCAGGGACCTCCGGAGTCACCTAGTGCAG”, with 8390 fluorescence intensity (a.u.).
With “TATATTGTCTGTTTTCTCTTGAATCTTTCCTATCCAGTAGCGGAGTCACCTAGTGCAG”, the binding signal is 8490 fluorescence intensity (a.u.).
Take “GGAGTAGTTTGGTTGGTTCGTTAAGGGACAGAGGGAGCTGCGGAGTCACCTAGTGCAG”: the binding signal was 10700 fluorescence intensity (a.u.).
In the case of “CTCCAGCTATATAACCATCCTTGTGCCTCTCTTGCCACACCGGAGTCACCTAGTGCAG”, the binding signal is 8280 fluorescence intensity (a.u.).
Take “GCTGCGAAGCCATCTTCTTCTCGGTCTCCACGCGCTTTCACGGAGTCACCTAGTGCAG”: the binding signal was 10000 fluorescence intensity (a.u.).
Turning to “ACCCGTGCTGACTCAACTTGTTGACCAGAAACCACCCCACCGGAGTCACCTAGTGCAG”, the binding signal was 12100 fluorescence intensity (a.u.).
In the case of “TCTCCTCTCTATTTTTTTTTAAAAAAAATCTGCTGCCCTTCGGAGTCACCTAGTGCAG”, the binding signal is 9270 fluorescence intensity (a.u.).
